PubChem BioAssay AID1508597 | Cure First – 2020
Screen: 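Genes whose silencing sensitises or protects ovarian cancer cells against rucaparib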 (primary screen). Cell system: human ovarian carcinoma lines grown from tumours: OCI-P5x (papillary serous) and OCI-C5x (clear cell). Reagents: siRNA pool against human genes, 1.25 pmol siRNA per well. Time to read-out: 72 h or 96 h, depending on the cell culture. Treatment: rucaparib 20 µM (about IC30) or vehicle, present until read-out. Rucaparib or vehicle: Rucaparib. Cell line: OCI-P5x (serous). Measurement: 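Luminescent ATP-based viability assay read 72 or 96 h after transfection, depending on culture, given as normalised percent viability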. Reading the numbers: viability, normalised: higher = more viable cells remaining. Active means: 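a well counts as a hit if its normalised viability is under 80 percent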. Meaning of the calls: active = viability under 80%; inactive = viability 80% or more.
This is an unselected part of the about 2,100 reagents, in one setting of the screen. 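Calls flag viability under 80% in either arm, not effects specific to rucaparib; the reference for percent is not stated.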 A number with no mark means an inactive call. Some reagents were tested in more than one well and are listed for each. Not stated in the record: the 100% reference.

gene symbol | technical replicate | viability, normalised (%)
ING4 (inhibitor of growth family member 4) | 1 | 51.1 (active)
ING4 (inhibitor of growth family member 4) | 2 | 63.2 (active)
ING4 (inhibitor of growth family member 4) | 3 | 45.4 (active)
JAK1 (Janus kinase 1) | 1 | 39.7 (active)
JAK1 (Janus kinase 1) | 2 | 70.7 (active)
JAK1 (Janus kinase 1) | 3 | 62.3 (active)
ROR2 (ROR family WNT receptor 2) | 1 | 80.4
ROR2 (ROR family WNT receptor 2) | 2 | 67.5 (active)
ROR2 (ROR family WNT receptor 2) | 3 | 83.5
MAPK4 (mitogen-activated protein kinase 4) | 1 | 103
MAPK4 (mitogen-activated protein kinase 4) | 2 | 95.6
MAPK4 (mitogen-activated protein kinase 4) | 3 | 99.3
APPL1 | 1 | 81.5
APPL1 | 2 | 70 (active)
APPL1 | 3 | 81.9
PDE4D (phosphodiesterase 4D) | 1 | 45 (active)
PDE4D (phosphodiesterase 4D) | 2 | 39.4 (active)
PDE4D (phosphodiesterase 4D) | 3 | 49.8 (active)
MEN1 (menin 1) | 1 | 69.8 (active)
MEN1 (menin 1) | 2 | 56.6 (active)
MEN1 (menin 1) | 3 | 66.9 (active)
BRCA1 (BRCA1 DNA repair associated) | 1 | 38.9 (active)
BRCA1 (BRCA1 DNA repair associated) | 1 | 92.4
BRCA1 (BRCA1 DNA repair associated) | 2 | 89.8
BRCA1 (BRCA1 DNA repair associated) | 2 | 41.2 (active)
BRCA1 (BRCA1 DNA repair associated) | 3 | 65.9 (active)
BRCA1 (BRCA1 DNA repair associated) | 3 | 43.6 (active)
EIF2AK2 (eukaryotic translation initiation factor 2 alpha kinase 2) | 1 | 70.1 (active)
EIF2AK2 (eukaryotic translation initiation factor 2 alpha kinase 2) | 2 | 90.1
EIF2AK2 (eukaryotic translation initiation factor 2 alpha kinase 2) | 3 | 75.4 (active)
GALK1 (galactokinase 1) | 1 | 76.4 (active)
GALK1 (galactokinase 1) | 2 | 77.5 (active)
GALK1 (galactokinase 1) | 3 | 70.2 (active)
SRC (SRC proto-oncogene, non-receptor tyrosine kinase) | 1 | 79.7 (active)
SRC (SRC proto-oncogene, non-receptor tyrosine kinase) | 2 | 95.1
SRC (SRC proto-oncogene, non-receptor tyrosine kinase) | 3 | 82.7
TBL1Y (transducin beta like 1 Y-linked) | 1 | 68 (active)
TBL1Y (transducin beta like 1 Y-linked) | 2 | 59.3 (active)
TBL1Y (transducin beta like 1 Y-linked) | 3 | 72.2 (active)
